Among the data in article PMC8143632 are binding values, retold here.

Common to all, as to experiment: cross-linking; SIN3A-HaloTag or SIN3B_2-HaloTag from Flp-In-293 cells enriched on Magne HaloTag Beads; 5 mM DSSO on the beads, room temperature, 40 min; eluted with AcTEV Protease; cross-linked peptides found by mass spectrometry (XlinkX, FDR 0.01)
For one test, the target named is T1, SIN3A-HaloTag (human) (UniProt Q96ST3).
T1 sequence: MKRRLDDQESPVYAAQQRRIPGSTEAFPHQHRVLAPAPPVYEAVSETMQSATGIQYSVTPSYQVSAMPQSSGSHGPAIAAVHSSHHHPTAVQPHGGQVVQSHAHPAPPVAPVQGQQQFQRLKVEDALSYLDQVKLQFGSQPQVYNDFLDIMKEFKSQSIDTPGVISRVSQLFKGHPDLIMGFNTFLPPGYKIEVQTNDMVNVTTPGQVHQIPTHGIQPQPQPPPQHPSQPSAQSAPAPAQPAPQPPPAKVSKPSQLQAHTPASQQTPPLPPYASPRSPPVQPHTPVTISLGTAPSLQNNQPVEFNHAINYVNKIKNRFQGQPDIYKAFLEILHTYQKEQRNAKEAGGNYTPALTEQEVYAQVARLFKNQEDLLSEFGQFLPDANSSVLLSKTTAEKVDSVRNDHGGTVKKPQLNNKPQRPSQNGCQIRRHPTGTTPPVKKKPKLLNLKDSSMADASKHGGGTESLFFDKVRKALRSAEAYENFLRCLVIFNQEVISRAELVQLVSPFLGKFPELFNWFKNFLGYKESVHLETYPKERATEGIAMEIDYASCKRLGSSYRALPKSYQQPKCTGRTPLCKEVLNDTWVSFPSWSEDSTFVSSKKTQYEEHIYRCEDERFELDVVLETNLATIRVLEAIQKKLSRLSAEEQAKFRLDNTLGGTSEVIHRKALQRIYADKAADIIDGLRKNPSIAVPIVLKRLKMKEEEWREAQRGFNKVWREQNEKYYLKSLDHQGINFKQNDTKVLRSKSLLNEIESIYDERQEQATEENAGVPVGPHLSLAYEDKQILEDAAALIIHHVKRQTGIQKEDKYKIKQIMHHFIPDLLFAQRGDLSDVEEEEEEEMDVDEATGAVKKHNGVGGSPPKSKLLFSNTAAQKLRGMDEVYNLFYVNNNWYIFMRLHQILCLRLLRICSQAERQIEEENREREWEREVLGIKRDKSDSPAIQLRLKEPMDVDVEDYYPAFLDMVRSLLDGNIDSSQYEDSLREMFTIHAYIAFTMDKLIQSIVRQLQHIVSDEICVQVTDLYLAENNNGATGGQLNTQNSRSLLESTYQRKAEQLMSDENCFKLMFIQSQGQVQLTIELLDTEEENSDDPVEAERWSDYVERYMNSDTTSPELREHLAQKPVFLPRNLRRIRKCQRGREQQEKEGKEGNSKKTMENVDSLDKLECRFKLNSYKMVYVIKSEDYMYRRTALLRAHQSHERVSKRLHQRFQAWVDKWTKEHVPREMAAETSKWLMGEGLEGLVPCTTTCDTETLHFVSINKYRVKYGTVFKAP

Another test concerns the target T2, SIN3B_2-HaloTag (human) (UniProt O75182).
T2 sequence: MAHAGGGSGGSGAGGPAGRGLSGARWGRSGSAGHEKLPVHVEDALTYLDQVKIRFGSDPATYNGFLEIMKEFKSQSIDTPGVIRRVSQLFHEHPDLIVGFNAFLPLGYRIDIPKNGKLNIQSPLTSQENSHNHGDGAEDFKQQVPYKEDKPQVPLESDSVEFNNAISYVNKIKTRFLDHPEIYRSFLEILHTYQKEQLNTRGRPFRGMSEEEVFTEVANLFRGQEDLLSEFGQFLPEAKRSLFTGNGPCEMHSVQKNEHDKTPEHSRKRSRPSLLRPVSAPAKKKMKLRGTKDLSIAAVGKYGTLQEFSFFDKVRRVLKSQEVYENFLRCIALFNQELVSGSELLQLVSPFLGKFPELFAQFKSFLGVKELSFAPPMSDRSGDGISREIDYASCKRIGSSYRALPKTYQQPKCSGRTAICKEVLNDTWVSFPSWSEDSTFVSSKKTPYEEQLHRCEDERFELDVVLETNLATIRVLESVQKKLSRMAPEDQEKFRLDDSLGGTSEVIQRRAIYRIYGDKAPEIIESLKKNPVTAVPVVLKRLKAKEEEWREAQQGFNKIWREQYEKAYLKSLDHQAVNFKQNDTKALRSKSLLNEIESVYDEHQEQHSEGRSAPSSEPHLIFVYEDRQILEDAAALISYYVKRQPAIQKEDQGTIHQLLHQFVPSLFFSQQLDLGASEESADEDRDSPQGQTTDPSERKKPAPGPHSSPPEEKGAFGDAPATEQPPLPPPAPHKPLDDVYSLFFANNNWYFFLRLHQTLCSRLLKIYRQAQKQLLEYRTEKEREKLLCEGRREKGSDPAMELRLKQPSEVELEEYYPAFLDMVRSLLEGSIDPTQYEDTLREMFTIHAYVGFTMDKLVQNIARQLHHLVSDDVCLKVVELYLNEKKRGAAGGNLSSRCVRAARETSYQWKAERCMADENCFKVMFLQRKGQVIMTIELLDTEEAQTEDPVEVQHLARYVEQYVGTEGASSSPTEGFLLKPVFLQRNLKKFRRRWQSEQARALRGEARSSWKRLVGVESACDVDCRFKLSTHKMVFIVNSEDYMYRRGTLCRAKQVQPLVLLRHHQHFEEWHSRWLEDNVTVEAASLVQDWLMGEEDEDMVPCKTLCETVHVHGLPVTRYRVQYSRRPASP

Test [1] addresses T3, SIN3A-HaloTag (human), Q96ST3.
T3 chain: T1 sequence
The conditions noted are these: remark: other sources report otherwise.

No constants are given. Whether binding was seen depends on the method and setting. In cells and extracts the contact can be indirect. Some entries that bind do so weakly or less than the wild type. Tags and fused reporters may be left off the sequences shown.

B1: SAP30 (protein, UniProt O75446 1-220)
chain: MNGFTPDEMSRGGDAAAAVAAVVAAAAAAASAGNGTGAGTGAEVPGAGAVSAAGPPGAAGPGPGQLCCLREDGERCGRAAGNASFSKRIQKSISQKKVKIELDKSARHLYICDYHKNLIQSVRNRRKRKGSDDDGGDSPVQDIDTPEVDLYQLQVNTLRRYKRHFKLPTRPGLNKAQLVEIVGCHFRSIPVNEKDTLTYFIYSVKNDKNKSDLKVDSGVH
For B1, in the test with SIN3A-HaloTag (human), the binding result is on record as “binds”.

B2: SIN3B_2-HaloTag (protein, UniProt O75182-2 1-1130)
chain: T2 sequence
Turning to B2, in the test with SIN3B_2-HaloTag (human), the binding result is recorded as “binds”.

B3: BRMS1L (protein, UniProt Q5PSV4 1-323)
chain: MPVHSRGDKKETNHHDEMEVDYAENEGSSSEDEDTESSSVSEDGDSSEMDDEDCERRRMECLDEMSNLEKQFTDLKDQLYKERLSQVDAKLQEVIAGKAPEYLEPLATLQENMQIRTKVAGIYRELCLESVKNKYECEIQASRQHCESEKLLLYDTVQSELEEKIRRLEEDRHSIDITSELWNDELQSRKKRKDPFSPDKKKPVVVSGPYIVYMLQDLDILEDWTTIRKAMATLGPHRVKTEPPVKLEKHLHSARSEEGRLYYDGEWYIRGQTICIDKKDECPTSAVITTINHDEVWFKRPDGSKSKLYISQLQKGKYSIKHS
As for B3, the binding entry with SIN3B_2-HaloTag (human) and in the test with SIN3A-HaloTag (human) was “binds” throughout.

B4: SAP30L (protein, UniProt Q9HAJ7 1-183)
chain: MNGFSTEEDSREGPPAAPAAAAPGYGQSCCLIEDGERCVRPAGNASFSKRVQKSISQKKLKLDIDKSVRHLYICDFHKNFIQSVRNKRKRKTSDDGGDSPEHDTDIPEVDLFQLQVNTLRRYKRHYKLQTRPGFNKAQLAETVSRHFRNIPVNEKETLAYFIYMVKSNKSRLDQKSEGGKQLE
For the molecule B4, the binding entry with SIN3A-HaloTag (human) is on record as “binds”.

B5: SUDS3 (protein, UniProt Q9H7L9 1-328)
chain: MSAAGLLAPAPAQAGAPPAPEYYPEEDEELESAEDDERSCRGRESDEDTEDASETDLAKHDEEDYVEMKEQMYQDKLASLKRQLQQLQEGTLQEYQKRMKKLDQQYKERIRNAELFLQLETEQVERNYIKEKKAAVKEFEDKKVELKENLIAELEEKKKMIENEKLTMELTGDSMEVKPIMTRKLRRRPNDPVPIPDKRRKPAPAQLNYLLTDEQIMEDLRTLNKLKSPKRPASPSSPEHLPATPAESPAQRFEARIEDGKLYYDKRWYHKSQAIYLESKDNQKLSCVISSVGANEIWVRKTSDSTKMRIYLGQLQRGLFVIRRRSAA
On to B5, for which the binding result with SIN3B_2-HaloTag (human) and with SIN3A-HaloTag (human) was “binds” throughout.

B6: PHF12, Q96QT6 1-1004 (protein)
chain: MWEKMETKTIVYDLDTSGGLMEQIQALLAPPKTDEAEKRSRKPEKEPRRSGRATNHDSCDSCKEGGDLLCCDHCPAAFHLQCCNPPLSEEMLPPGEWMCHRCTVRRKKREQKKELGHVNGLVDKSGKRTTSPSSDTDLLDRSASKTELKAIAHARILERRASRPGTPTSSASTETPTSEQNDVDEDIIDVDEEPVAAEPDYVQPQLRRPFELLIAAAMERNPTQFQLPNELTCTTALPGSSKRRRKEETTGKNVKKTQHELDHNGLVPLPVKVCFTCNRSCRVAPLIQCDYCPLLFHMDCLEPPLTAMPLGRWMCPNHIEHVVLNQKNMTLSNRCQVFDRFQDTVSQHVVKVDFLNRIHKKHPPNRRVLQSVKRRSLKVPDAIKSQYQFPPPLIAPAAIRDGELICNGIPEESQMHLLNSEHLATQAEQQEWLCSVVALQCSILKHLSAKQMPSHWDSEQTEKADIKPVIVTDSSVTTSLQTADKTPTPSHYPLSCPSGISTQNSLSCSPPHQSPALEDIGCSSCAEKSKKTPCGTANGPVNTEVKANGPHLYSSPTDSTDPRRLPGANTPLPGLSHRQGWPRPLTPPAAGGLQNHTVGIIVKTENATGPSSCPQRSLVPVPSLPPSIPSSCASIENTSTLQRKTVQSQIGPPLTDSRPLGSPPNATRVLTPPQAAGDGILATTANQRFSSPAPSSDGKVSPGTLSIGSALTVPSFPANSTAMVDLTNSLRAFMDVNGEIEINMLDEKLIKFLALQRIHQLFPSRVQPSPGSVGTHQLASGGHHIEVQRKEVQARAVFYPLLGLGGAVNMCYRTLYIGTGADMDVCLTNYGHCNYVSGKHACIFYDENTKHYELLNYSEHGTTVDNVLYSCDFSEKTPPTPPSSIVAKVQSVIRRRRHQKQDEEPSEEAAMMSSQAQGPQRRPCNCKASSSSLIGGSGAGWEGTALLHHGSYIKLGCLQFVFSITEFATKQPKGDASLLQDGVLAEKLSLKPHQGPVLRSNSVP
In the case of B6, the binding result in test [1] is given as “no binding”.
